Results are given in words; binding and its absence hold for the method and conditions named. In cells and extracts the contact can be indirect. Some results given as binding are weak or reduced against the parent protein; the word gives no strength. Where a sequence is shown, tags or fusion partners need not be part of it.
Target: T1, HA-Dyn2 (wild type dynamin2) (UniProt P50570)
T1 sequence: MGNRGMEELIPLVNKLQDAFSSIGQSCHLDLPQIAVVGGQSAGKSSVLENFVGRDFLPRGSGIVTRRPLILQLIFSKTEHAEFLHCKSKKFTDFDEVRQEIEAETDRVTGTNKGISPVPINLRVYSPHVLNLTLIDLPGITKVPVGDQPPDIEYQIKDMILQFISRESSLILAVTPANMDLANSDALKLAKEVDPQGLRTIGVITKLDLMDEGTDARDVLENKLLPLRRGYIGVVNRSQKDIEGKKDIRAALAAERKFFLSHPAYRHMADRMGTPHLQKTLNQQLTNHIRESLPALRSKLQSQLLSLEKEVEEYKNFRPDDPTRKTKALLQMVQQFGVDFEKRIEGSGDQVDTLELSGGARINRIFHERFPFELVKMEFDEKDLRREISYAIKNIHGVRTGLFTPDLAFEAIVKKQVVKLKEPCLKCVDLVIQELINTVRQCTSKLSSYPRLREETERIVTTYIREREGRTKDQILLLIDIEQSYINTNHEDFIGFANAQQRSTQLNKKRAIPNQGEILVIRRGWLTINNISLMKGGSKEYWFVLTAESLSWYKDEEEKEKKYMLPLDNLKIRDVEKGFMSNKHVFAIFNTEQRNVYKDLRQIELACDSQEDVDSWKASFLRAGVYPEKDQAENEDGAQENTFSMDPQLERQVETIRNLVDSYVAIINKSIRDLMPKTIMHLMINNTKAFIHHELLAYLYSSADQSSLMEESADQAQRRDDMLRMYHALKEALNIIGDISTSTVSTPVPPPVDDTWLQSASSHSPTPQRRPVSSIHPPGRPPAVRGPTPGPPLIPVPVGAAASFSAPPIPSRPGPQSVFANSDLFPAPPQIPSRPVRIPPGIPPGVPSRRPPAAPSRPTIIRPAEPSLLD
Test: co-IP; Flag-EFA6B and HA-Dyn2 coexpressed in HEK293T cells (48 hr) together with mCherry-N1cβγ or mCherry-N2 (186-226); immunoprecipitation with anti-Flag antibody beads; coimmunoprecipitated Dyn2 blotted with anti-HA

For KQNRSTSTQVVFWAGILQAQMCVLDLEEELEKTEGLKAGLK (peptide, UniProt Q8NDX1 145-185) [mCherry-N1cβγ peptide of EFA6B (amino acids 145-185)], the binding was “binds”.

Reference: paper PMC4621509
